Literature values as cited in patent publication US11337968B2, “Phenylquinoline compositions for treatment of ocular disorders and conditions” (The Board of Regents of the University of Oklahoma, priority 2016, dated 2022).
For at least one compound, name, drawing or mass did not settle the structure.

Key:
[1] = test system: diabetic retinopathy; details: type 2 diabetic patients, FIELD and ACCORD; cited from earlier work
[2] = test system: ischemia-induced retinal NV; details: previous studies; cited from earlier work
[3] = test system: retinal leukostasis and vascular leakage; details: diabetic models, previous studies; cited from earlier work

Q: What does the source list for `CC(C)OC(=O)C(C)(C)Oc1ccc(C(=O)c2ccc(Cl)cc2)cc1` [fenofibrate]?
A: reduction of DR in clinical trials [1]: 32-40%; ischemia-induced retinal NV [2]: ameliorates; retinal leukostasis [3]: effectively reduced; retinal vascular leakage [3]: effectively reduced
